Test results reported in the supplement of paper PMC10849652.
The list shows a part of the results.

Amino acid sequences for entries named in this document (tags omitted). A change or cut given only in a name is not applied to a line headed by its entry.
UniProt P51397: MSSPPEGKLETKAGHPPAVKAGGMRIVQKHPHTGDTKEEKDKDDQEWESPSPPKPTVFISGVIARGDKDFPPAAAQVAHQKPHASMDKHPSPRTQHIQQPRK
UniProt Q93034, whole entry, looked up: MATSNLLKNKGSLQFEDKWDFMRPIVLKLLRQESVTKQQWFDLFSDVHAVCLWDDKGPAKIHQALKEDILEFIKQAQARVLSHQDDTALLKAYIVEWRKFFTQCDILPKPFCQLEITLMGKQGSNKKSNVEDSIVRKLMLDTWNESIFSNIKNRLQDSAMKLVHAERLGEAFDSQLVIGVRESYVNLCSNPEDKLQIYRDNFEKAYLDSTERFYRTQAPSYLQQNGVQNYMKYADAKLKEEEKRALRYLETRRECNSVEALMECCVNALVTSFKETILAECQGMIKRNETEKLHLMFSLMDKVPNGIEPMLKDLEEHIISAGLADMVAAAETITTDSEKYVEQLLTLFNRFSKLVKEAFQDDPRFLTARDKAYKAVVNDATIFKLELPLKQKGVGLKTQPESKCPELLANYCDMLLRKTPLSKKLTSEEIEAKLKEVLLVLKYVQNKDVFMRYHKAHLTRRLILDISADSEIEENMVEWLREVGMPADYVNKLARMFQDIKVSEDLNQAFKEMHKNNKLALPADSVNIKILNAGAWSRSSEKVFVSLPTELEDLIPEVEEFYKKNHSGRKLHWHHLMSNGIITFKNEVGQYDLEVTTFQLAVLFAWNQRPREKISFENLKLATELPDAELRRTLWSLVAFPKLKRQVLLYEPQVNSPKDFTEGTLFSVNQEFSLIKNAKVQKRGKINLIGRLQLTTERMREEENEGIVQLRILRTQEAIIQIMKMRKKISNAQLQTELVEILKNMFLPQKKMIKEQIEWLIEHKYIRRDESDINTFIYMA
UniProt P0DMU8: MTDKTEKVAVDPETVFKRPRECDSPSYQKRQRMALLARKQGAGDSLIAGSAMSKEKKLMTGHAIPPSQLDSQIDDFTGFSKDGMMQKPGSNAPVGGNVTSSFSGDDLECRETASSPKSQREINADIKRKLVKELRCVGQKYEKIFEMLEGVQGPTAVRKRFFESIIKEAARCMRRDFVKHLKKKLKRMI
UniProt O75935, whole entry, looked up: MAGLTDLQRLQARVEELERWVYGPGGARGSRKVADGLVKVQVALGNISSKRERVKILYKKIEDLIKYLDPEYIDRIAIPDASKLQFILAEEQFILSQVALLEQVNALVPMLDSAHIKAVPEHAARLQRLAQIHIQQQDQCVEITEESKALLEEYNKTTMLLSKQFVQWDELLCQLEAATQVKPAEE
UniProt P00167, whole entry, looked up: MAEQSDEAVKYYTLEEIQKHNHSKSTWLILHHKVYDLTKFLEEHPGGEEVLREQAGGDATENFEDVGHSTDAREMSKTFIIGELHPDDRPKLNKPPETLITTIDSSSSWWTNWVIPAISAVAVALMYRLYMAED
UniProt Q96C57: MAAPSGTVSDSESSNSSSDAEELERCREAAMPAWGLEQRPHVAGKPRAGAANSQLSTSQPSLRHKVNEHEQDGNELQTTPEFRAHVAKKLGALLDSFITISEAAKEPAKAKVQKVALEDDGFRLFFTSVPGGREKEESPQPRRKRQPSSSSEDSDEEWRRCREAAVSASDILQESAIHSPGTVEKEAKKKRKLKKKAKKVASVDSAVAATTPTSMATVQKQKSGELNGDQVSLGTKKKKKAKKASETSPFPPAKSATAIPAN
UniProt Q1MSJ5: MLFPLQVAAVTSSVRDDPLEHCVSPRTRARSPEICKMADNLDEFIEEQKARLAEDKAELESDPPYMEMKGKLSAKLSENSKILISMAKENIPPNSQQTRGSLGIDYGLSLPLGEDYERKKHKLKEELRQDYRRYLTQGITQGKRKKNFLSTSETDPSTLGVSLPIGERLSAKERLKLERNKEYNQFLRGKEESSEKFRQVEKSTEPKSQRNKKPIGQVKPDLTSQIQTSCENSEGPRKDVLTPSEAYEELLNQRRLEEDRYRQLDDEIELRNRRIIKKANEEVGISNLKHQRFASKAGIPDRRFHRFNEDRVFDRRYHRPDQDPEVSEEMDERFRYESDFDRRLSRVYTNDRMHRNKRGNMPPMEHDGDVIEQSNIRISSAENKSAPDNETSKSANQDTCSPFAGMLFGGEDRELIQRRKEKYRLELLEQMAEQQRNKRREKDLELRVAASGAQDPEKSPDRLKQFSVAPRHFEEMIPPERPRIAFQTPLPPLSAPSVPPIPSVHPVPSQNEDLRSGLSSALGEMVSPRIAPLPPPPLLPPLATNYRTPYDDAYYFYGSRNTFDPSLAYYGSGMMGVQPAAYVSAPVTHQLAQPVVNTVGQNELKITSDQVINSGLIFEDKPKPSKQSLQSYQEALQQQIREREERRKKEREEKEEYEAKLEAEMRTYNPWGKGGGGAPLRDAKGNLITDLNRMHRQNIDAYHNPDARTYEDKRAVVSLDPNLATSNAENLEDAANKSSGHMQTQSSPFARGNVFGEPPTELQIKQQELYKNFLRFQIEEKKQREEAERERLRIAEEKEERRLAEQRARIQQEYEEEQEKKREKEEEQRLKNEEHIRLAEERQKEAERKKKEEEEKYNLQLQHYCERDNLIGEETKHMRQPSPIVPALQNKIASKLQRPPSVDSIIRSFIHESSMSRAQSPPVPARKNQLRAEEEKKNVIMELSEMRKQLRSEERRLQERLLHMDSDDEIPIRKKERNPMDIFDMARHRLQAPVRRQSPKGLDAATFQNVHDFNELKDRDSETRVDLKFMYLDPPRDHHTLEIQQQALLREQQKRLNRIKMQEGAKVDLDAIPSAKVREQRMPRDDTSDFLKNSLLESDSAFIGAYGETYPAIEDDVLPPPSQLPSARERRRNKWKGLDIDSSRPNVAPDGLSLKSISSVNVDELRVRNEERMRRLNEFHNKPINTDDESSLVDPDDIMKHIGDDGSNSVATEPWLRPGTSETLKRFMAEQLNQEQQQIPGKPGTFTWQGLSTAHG
UniProt P00387: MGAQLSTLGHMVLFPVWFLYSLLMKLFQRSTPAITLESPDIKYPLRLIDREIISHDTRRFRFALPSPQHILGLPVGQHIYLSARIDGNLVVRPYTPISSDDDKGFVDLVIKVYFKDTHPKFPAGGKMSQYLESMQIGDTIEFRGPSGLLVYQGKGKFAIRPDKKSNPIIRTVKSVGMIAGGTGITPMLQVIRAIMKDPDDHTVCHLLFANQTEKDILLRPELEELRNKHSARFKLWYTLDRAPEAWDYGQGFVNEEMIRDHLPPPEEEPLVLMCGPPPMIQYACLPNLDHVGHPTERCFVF
UniProt P08574: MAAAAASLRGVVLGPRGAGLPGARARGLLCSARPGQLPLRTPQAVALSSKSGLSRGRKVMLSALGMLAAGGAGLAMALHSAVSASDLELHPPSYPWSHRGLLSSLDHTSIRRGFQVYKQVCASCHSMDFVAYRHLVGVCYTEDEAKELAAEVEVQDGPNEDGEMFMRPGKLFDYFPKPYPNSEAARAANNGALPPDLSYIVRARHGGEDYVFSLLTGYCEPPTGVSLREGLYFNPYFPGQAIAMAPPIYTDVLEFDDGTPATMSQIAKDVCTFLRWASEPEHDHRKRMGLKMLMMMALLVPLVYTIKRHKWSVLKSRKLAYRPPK
UniProt P99999: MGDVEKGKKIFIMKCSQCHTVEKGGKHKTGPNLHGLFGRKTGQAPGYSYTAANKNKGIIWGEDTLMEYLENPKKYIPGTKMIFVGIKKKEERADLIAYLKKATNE
UniProt Q13619, whole entry, looked up: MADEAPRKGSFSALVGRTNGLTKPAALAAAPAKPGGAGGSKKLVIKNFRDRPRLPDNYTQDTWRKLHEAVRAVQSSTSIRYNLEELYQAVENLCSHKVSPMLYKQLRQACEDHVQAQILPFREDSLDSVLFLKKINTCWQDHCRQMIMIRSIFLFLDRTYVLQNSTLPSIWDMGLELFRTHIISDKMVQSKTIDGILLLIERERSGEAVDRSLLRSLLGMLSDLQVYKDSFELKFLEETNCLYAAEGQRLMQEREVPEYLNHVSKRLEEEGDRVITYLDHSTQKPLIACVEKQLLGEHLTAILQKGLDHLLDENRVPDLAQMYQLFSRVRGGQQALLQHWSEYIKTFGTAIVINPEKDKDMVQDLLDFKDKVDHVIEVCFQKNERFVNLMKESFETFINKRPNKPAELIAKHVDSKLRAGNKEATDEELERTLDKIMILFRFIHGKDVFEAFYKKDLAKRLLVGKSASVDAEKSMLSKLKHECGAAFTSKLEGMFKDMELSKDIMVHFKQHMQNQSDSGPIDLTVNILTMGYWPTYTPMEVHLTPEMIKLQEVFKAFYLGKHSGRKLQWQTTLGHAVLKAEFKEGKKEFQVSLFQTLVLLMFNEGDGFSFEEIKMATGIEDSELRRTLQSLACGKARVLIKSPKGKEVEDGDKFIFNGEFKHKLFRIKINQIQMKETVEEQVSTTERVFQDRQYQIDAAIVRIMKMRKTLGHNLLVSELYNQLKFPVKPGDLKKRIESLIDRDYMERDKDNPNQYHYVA
UniProt P0DMU9: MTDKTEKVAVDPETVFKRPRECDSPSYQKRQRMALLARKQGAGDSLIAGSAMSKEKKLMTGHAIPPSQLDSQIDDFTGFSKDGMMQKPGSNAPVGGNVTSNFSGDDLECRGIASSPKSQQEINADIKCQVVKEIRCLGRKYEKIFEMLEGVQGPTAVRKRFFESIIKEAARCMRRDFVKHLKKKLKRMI
UniProt Q2VPK5: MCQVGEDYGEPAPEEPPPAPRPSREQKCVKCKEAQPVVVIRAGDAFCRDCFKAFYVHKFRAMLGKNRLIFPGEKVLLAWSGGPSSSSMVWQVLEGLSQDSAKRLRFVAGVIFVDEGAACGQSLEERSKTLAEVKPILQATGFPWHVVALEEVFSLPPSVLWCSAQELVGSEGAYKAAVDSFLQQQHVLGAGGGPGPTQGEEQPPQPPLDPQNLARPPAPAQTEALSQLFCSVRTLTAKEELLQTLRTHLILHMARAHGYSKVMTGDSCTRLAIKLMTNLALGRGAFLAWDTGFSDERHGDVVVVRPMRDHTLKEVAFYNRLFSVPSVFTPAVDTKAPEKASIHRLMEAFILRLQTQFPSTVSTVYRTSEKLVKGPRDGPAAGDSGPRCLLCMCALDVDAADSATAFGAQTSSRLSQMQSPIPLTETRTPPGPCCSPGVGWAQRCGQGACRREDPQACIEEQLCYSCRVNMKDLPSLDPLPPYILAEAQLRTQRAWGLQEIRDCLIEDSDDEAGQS
UniProt P61962: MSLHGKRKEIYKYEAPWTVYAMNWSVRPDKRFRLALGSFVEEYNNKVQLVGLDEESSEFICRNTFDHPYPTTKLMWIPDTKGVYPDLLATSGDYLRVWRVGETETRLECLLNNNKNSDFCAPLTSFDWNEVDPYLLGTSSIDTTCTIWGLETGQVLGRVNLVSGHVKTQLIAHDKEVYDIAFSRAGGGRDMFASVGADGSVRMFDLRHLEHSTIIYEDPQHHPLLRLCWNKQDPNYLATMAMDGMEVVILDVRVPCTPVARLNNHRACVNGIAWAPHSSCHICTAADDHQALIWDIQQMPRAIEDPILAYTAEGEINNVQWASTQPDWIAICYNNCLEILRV
UniProt Q8WVC6: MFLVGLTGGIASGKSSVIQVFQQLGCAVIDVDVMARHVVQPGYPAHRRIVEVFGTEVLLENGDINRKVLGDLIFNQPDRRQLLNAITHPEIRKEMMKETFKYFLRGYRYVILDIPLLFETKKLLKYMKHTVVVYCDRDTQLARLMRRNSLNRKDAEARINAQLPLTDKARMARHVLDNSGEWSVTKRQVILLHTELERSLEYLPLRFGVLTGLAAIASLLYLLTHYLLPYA
UniProt P17812: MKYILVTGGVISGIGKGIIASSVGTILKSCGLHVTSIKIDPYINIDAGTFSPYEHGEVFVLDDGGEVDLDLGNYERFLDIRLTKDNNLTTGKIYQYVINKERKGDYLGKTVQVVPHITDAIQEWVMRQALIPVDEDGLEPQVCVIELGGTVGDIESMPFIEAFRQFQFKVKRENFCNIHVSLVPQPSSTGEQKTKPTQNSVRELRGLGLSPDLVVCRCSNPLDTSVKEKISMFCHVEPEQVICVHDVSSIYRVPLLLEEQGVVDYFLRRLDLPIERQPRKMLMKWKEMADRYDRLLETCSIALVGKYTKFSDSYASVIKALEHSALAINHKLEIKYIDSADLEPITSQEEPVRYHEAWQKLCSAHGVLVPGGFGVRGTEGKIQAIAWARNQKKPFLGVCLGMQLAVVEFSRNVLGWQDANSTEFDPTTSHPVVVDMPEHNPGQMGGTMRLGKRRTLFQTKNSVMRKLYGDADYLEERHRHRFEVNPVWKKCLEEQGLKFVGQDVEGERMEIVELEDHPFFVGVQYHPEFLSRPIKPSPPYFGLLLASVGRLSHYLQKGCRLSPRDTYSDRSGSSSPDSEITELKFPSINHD
UniProt Q8WUE5: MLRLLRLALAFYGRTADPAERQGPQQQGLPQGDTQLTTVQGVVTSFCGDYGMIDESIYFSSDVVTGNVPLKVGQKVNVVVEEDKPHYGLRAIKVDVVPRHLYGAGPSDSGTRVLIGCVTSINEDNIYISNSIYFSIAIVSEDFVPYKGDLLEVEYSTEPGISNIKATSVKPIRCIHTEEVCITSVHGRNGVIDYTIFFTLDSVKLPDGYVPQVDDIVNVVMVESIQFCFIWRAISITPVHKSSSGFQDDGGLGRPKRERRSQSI

Columns and labels:
Assay in all cases: log2 fold change, soluble protein after heating vs DMSO (PISA); higher = thermal stabilisation; K562 cells, 10 uM, 30 min; active = over 0.2 and 3.5 SD of the protein, either way, in both replicates (recomputed)
[1] = compound: CC[C@@H]1C(=O)N(C)c2cnc(Nc3ccc(C(=O)NC4CCN(C)CC4)cc3OC)nc2N1C1CCCC1
Outline: (§1)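 K562 cells at 2×10^6 cells/mL were treated for 30 min with 10 μM compound, and aliquots were heated for 3 min over 48°C-58°C before pooling. Extraction used PBS with 0.5% NP-40 at 4°C, and soluble protein was the supernatant after 21,000xg for 90 min, measured by TMTpro 16plex LC-MS/MS with channel sums equalised. Thermal stability values, relative to control samples and from duplicates, are log2 fold changes.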

volasertib = compound: CC[C@@H]1C(=O)N(C)c2cnc(Nc3ccc(C(=O)N[C@H]4CC[C@H](N5CCN(CC6CC6)CC5)CC4)cc3OC)nc2N1C(C)C [volasertib]
Outline: as §1

[2] = compound: CC[C@H](C)N1C=C(C2=C(C=C(C=C21)C3=CN=C(C=C3)N4CCNCC4)C(=O)NCC5=C(C=C(NC5=O)C)C)C
Outline: as §1

epoxomicin = compound: CC[C@H](C)[C@@H](C(=O)N[C@@H]([C@@H](C)O)C(=O)N[C@@H](CC(C)C)C(=O)[C@]1(CO1)C)NC(=O)[C@H]([C@@H](C)CC)N(C)C(=O)C [epoxomicin]
Outline: as §1

[3] = compound: CCn1c(C(=O)N(C2CC2)C2CC2)cc2c3c(ncn3C)c(Nc3cc(C)n(C)n3)nc21
Outline: as §1

[4] = compound: CCn1cc(-c2ccnc3[nH]c(-c4cccc(CN(C)C)c4)cc23)c(-c2ccc(NC(=O)N(C)C)cc2)n1
Outline: as §1

[5] = compound: CN(C)CC(=O)Nc1ccc2[nH]c(=O)c3ccccc3c2c1
Outline: as §1

rosiglitazone = compound: CN(CCOC1=CC=C(C=C1)C[C@H]2C(=O)NC(=O)S2)C3=CC=CC=N3 (racemic) [rosiglitazone]
Outline: as §1

[6] = compound: CN1C2=C(C3=C1C(=O)N(N=C3)CC4=CC(=CC=C4)N)SC(=C2)S(=O)C
Outline: as §1

[7] = compound: CN1CCC(CNc2ccc3ncc(-c4cccc(OC(F)(F)F)c4)n3n2)CC1
Outline: as §1

Measured: log2 fold change

CTPS2 (UniProt Q9NRF8)
inactive: [1] 0.059 | volasertib 0.018 | [2] -0.028 | epoxomicin -0.034 | [3] 0.003 | [4] -0.039 | [5] -0.007 | rosiglitazone 0.02 | [6] -0.049 | [7] -0.012

DCTN6 (UniProt O00399)
inactive: [1] 0.044 | volasertib 0.008 | [2] -0.027 | epoxomicin -0.036 | [3] -0.026 | [4] -0.025 | [5] -0.019 | rosiglitazone 0.03 | [6] -0.049 | [7] 0.007

DAP (UniProt P51397)
inactive: [1] 0.042 | volasertib 0.048 | [2] -0.029 | epoxomicin 0.051 | [3] 0.018 | [4] 0.007 | [5] -0.029 | rosiglitazone 0.034 | [6] -0.001 | [7] -0.025

CUL5 (UniProt Q93034)
inactive: [1] 0.039 | volasertib 0.025 | [2] -0.016 | epoxomicin -0.008 | [3] -0.014 | [4] -0.021 | [5] -0.003 | rosiglitazone 0.025 | [6] -0.051 | [7] -0.037

CT45A5 (UniProt P0DMU8)
inactive: [1] 0.108 | volasertib 0.201 | [2] 0.013 | epoxomicin -0.088 | [3] -0.045 | [4] 0.12 | [5] -0.097 | rosiglitazone -0.085 | [6] 0.128 | [7] 0.081

Reprinted at random: 2 entries already listed, in no set order.
DCTN6 (UniProt O00399)
inactive: [1] 0.044 | volasertib 0.008 | [2] -0.027 | epoxomicin -0.036 | [3] -0.026 | [4] -0.025 | [5] -0.019 | rosiglitazone 0.03 | [6] -0.049 | [7] 0.007

DAP (UniProt P51397)
inactive: [1] 0.042 | volasertib 0.048 | [2] -0.029 | epoxomicin 0.051 | [3] 0.018 | [4] 0.007 | [5] -0.029 | rosiglitazone 0.034 | [6] -0.001 | [7] -0.025

Additional records follow:

DCTN3 (UniProt O75935)
inactive: [1] -0.022 | volasertib -0.119 | [2] 0.081 | epoxomicin 0.02 | [3] 0.042 | [4] -0.025 | [5] 0.053 | rosiglitazone 0.047 | [6] -0.024 | [7] -0.008

DCTD isoform 2 (UniProt P32321)
inactive: [1] 0.085 | volasertib 0.027 | [2] -0.023 | epoxomicin -0.026 | [3] 0.024 | [4] -0.026 | [5] -0.004 | rosiglitazone 0.014 | [6] -0.046 | [7] 0

CYB5A (UniProt P00167)
inactive: [1] -0.023 | volasertib -0.007 | [2] -0.056 | epoxomicin 0.057 | [3] -0.111 | [4] 0.065 | [5] 0.049 | rosiglitazone 0.036 | [6] 0 | [7] 0.241

CUSTOS (UniProt Q96C57)
inactive: [1] 0.032 | volasertib 0.021 | [2] -0.007 | epoxomicin -0.034 | [3] 0.014 | [4] 0.031 | [5] -0.066 | rosiglitazone -0.006 | [6] -0.034 | [7] 0.001

CYHR1 (UniProt E9PJD7)
inactive: [1] 0.058 | volasertib -0.022 | [2] -0.005 | epoxomicin -0.007 | [3] 0.013 | [4] -0.044 | [5] 0.071 | rosiglitazone -0.012 | [6] 0.011 | [7] 0.002

CTNNA2 (UniProt P26232)
inactive: [1] 0.035 | volasertib -0.034 | [2] 0.05 | epoxomicin 0.118 | [3] 0.012 | [4] -0.037 | [5] -0.01 | rosiglitazone 0.003 | [6] -0.039 | [7] -0.013

CSPP1 (UniProt Q1MSJ5)
inactive: [1] -0.083 | volasertib -0.151 | [2] -0.039 | epoxomicin -0.049 | [3] -0.03 | [4] -0.023 | [5] 0.036 | rosiglitazone 0.049 | [6] 0.046 | [7] 0.061

CYB5R3 isoform 3 (UniProt P00387)
inactive: [1] 0.023 | volasertib -0.022 | [2] -0.028 | epoxomicin -0.004 | [3] 0.008 | [4] -0.017 | [5] -0.035 | rosiglitazone -0.006 | [6] -0.026 | [7] 0.044

CYC1 (UniProt P08574)
inactive: [1] -0.008 | volasertib -0.02 | [2] 0.014 | epoxomicin -0.003 | [3] 0 | [4] 0.011 | [5] -0.031 | rosiglitazone -0.005 | [6] -0.036 | [7] 0.012

CYBC1 (UniProt Q9BQA9)
inactive: [1] 0.017 | volasertib 0.044 | [2] -0.049 | epoxomicin 0.024 | [3] 0.058 | [4] -0.014 | [5] -0.083 | rosiglitazone -0.004 | [6] -0.015 | [7] 0.191

CYCS (UniProt P99999)
inactive: [1] 0.004 | volasertib 0.036 | [2] -0.068 | epoxomicin -0.028 | [3] 0.033 | [4] 0.005 | [5] -0.01 | rosiglitazone -0.013 | [6] -0.032 | [7] -0.041

CYFIP2 (UniProt Q96F07)
inactive: [1] 0.038 | volasertib -0.177 | [2] 0.046 | epoxomicin -0.009 | [3] -0.008 | [4] -0.007 | [5] 0.007 | rosiglitazone 0.018 | [6] -0.064 | [7] -0.017

CUL3 (UniProt Q13618)
inactive: [1] -0.028 | volasertib -0.005 | [2] 0.02 | epoxomicin 0.041 | [3] -0.022 | [4] 0.005 | [5] 0.014 | rosiglitazone 0.013 | [6] -0.073 | [7] 0.029

CUL4A (UniProt Q13619)
inactive: [1] -0.031 | volasertib -0.152 | [2] 0.017 | epoxomicin 0.015 | [3] -0.013 | [4] -0.032 | [5] 0.009 | rosiglitazone 0.019 | [6] -0.044 | [7] 0

CT45A10 (UniProt P0DMU9)
inactive: [1] 0.103 | volasertib 0.237 | [2] -0.032 | epoxomicin -0.219 | [3] 0.05 | [4] 0.2 | [5] -0.044 | rosiglitazone -0.094 | [6] 0.092 | [7] 0.135

CTU2 (UniProt Q2VPK5)
inactive: [1] -0.006 | volasertib -0.007 | [2] 0.043 | epoxomicin 0.01 | [3] -0.011 | [4] -0.067 | [5] -0.021 | rosiglitazone 0.038 | [6] -0.095 | [7] -0.162

DCAF7 (UniProt P61962)
inactive: [1] 0.048 | volasertib 0.031 | [2] 0.054 | epoxomicin 0.049 | [3] 0.001 | [4] -0.016 | [5] 0 | rosiglitazone 0.042 | [6] -0.003 | [7] 0.011

DCAKD (UniProt Q8WVC6)
inactive: [1] -0.132 | volasertib -0.051 | [2] -0.026 | epoxomicin -0.072 | [3] 0.019 | [4] 0.069 | [5] 0.072 | rosiglitazone -0.028 | [6] -0.007 | [7] -0.17

CTTN (UniProt Q14247)
inactive: [1] 0.016 | volasertib -0.025 | [2] -0.045 | epoxomicin -0.015 | [3] 0.037 | [4] -0.001 | [5] -0.034 | rosiglitazone -0.007 | [6] -0.064 | [7] 0.001

CTPS1 (UniProt P17812)
inactive: [1] 0.015 | volasertib 0.002 | [2] -0.021 | epoxomicin 0.011 | [3] -0.014 | [4] 0.025 | [5] -0.009 | rosiglitazone 0.003 | [6] -0.048 | [7] -0.071

CUL2 isoform 2 (UniProt Q13617)
inactive: [1] -0.023 | volasertib -0.055 | [2] 0.043 | epoxomicin 0.018 | [3] -0.012 | [4] -0.07 | [5] 0.005 | rosiglitazone 0.023 | [6] -0.109 | [7] -0.065

CSRP1 (UniProt P21291)
inactive: [1] 0.003 | volasertib 0.062 | [2] -0.021 | epoxomicin 0.017 | [3] 0.014 | [4] -0.034 | [5] 0.002 | rosiglitazone 0 | [6] 0 | [7] -0.001

CTIF isoform 2 (UniProt O43310)
inactive: [1] 0.034 | volasertib -0.019 | [2] 0.062 | epoxomicin 0.041 | [3] -0.021 | [4] -0.023 | [5] -0.139 | rosiglitazone -0.006 | [6] -0.07 | [7] 0.098

DARS (UniProt P14868)
inactive: [1] 0.05 | volasertib 0.062 | [2] -0.017 | epoxomicin -0.041 | [3] 0.002 | [4] 0.028 | [5] -0.009 | rosiglitazone -0.013 | [6] 0.045 | [7] -0.01

CT55 (UniProt Q8WUE5)
inactive: [1] -0.024 | volasertib -0.187 | [2] -0.044 | epoxomicin -0.018 | [3] -0.066 | [4] 0.072 | [5] 0.072 | rosiglitazone -0.036 | [6] -0.082 | [7] -0.019
